Assay results reported in publication PMC10163288.
This is one part of the list.

B1: il10ra_site1_sap_20_mot_HHH_b2_04050_000000291_0001_1_20_H_._HHH_b2_01265_af2_0001_0000200010_0000002_0_0001_af2pred_0001 (protein)
chain: SSSSSEVEKAAARVLYLAARLGDDEAAIAVIRVFARLNSGETSEEEAEEILEELAERLRSSSSSS
B2: il10ra_site1_normal_mot_HHH_b2_00984_000000042_0001_1_20_H_._HHH_b2_06425_af2_0001_0000800033_0000001_0 (protein)
chain: SSSSDEELKEELEELIKEVKELLERGNTREASRLAQEILRLIYRLGDQELLQELWEIIKSGSSSS
B3: il10ra_site1_sap_18_mot_HHH_b1_01821_000000158_0001_23_39_H_._HHH_b1_02316_af2_0001_0000400011_0000001_0_0001 (protein)
chain: SSSSSDDTQRIYELIKRAIELMTEGNPEEAREVVEEAIELAEEAGSPILLKILEMILEELSSSSS
B4: il10ra_site1_normal_mot_HHH_b2_06199_000000213_0001_1_17_H_._HHH_b1_05925_0001_0000100007_0000002_0 (protein)
chain: SSSSDEERLRLSLRFARLLIEQGDPEAARRLLKAALDVARRNGDEELVEEIEELLEKLEGSSSSS
B5: il10ra_site1_sap_19_mot_HHH_b1_02815_af2_000000247_0001_3_20_H_._HHH_b2_06208_0001_0000100006_0000002_0_0001 (protein)
chain: SSSSSEEEKELEEFLERLRELVERGDPEEFAKLVIELLELIYRLSDEEALRELWRLLHEEASSSS
B6: il10ra_site1_sap_13_mot_HHH_b1_05357_000000034_0001_23_39_H_._HHH_b1_08654_0001_0000100008_0000002_1_0001_af2pred_0001 (protein)
chain: SSSSSAREEAERLFEEAEELIEQGDLRRVFELIRRIAELAAEFNDPEIEKLAQELLRLLLSSSSS
B7: il10ra_site1_normal_mot_HHH_b1_01879_000000050_0001_1_18_H_._HHH_b2_01804_0001_0000200011_0000001_0 (protein)
chain: SSSSDLEEEVEEAIERAEELLKRGNKKEALRLLFQIQIKAWRNNNEELVQLLAEVSIRISRSSSS
B8: il10ra_site1_normal_mot_8756ee2cf497b5429c717dfc0c0bcfd6_0001_000000186_0001_1_13_H_._HHH_b2_03977_0001_0000500031_0000002_0_af2pred_0001 (protein)
chain: SSSSSEVAEQVQRLIREALRLLNEGNPEEAEEVLREALELAREGNNEVLRVQVEYLLKLLTSSSS
B9: il10ra_site1_sap_16_mot_HHH_b1_00682_000000235_0001_1_20_H_._HHH_b2_04962_0001_0000500059_0000001_0_0001 (protein)
chain: SSSSSQEVYELLREALELLDQGNKEEAQEVVEEAERIAEELGNPLFEMQVRFIERDVKLRSSSSS
B10: il10ra_site1_sap_10_mot_HHH_b1_05704_af2_000000048_0001_1_18_H_._HHH_b2_04382_0001_0000100002_0000001_0_0001 (protein)
chain: SSSSSEEEEYVKLALRFVRWLLEAGDPEAARFYVEWALEKAKELGNEELEEEAEELLREARSSSS
B11: il10ra_site1_normal_mot_HHH_b2_04912_000000028_0001_1_20_H_._HHH_b1_06425_af2_0001_0000300010_0000001_1 (protein)
chain: SSSSDEELQRALELAREAFRLLLRGNPEEAQELLEEALELAEKLGSPLARTIRELLQALKSSSSS
B12: il10ra_site1_sap_22_mot_HHH_b2_04050_000000291_0001_1_20_H_._HHH_b1_05770_0001_0000100005_0000002_0_0001_af2pred_0001 (protein)
chain: SSSSSDEELRKEVEELLEEAKEIDDPEEAAEVLQRAARLAWELGDPELFHLVWRVAQENKSSSSS
B13: il10ra_site1_sap_23_mot_HHH_b1_03763_000000209_0001_22_38_H_._HHH_b2_01833_0001_0000100007_0000002_0_0001_af2pred_0001 (protein)
chain: SSSSDDEERLRLTLEAIEWAIKAGDEEAARLLIRAARQLAERDGNEEILKRLEELLEELNSSSSS
B14: il10ra_site1_sap_15_mot_HHH_b2_01310_000000089_0001_41_55_H_._HHH_b1_08154_af2_0001_0000300011_0000001_0_0001 (protein)
chain: SSSSSTQEVMKLIRRAMELAQEGNEEEAREVLEEARELAEEENNWALRWAIEHVEKVLNSSSSSS
B15: il10ra_site1_normal_mot_HHH_b2_08144_af2_000000046_0001_38_52_H_._HHH_b2_05514_af2_0001_0001100019_0000001_0_af2pred_dldesign_0_af2pred (protein)
chain: SSSSSSSPETERIVALIREAAELEDKEKARELLEEALELAEKNNNPILIDTARFLLRQVSSSSSS
B16: il10ra_site1_sap_25_mot_HHH_b1_04582_000000276_0001_1_18_H_._HHH_b1_00915_0001_0000200030_0000002_0_0001 (protein)
chain: SSSSDEQERAVERFARAMLEAVERDPRIREEAEKYVRMMHWFAKDPEVREVIEEILEELRSSSSS
B17: il10ra_site1_normal_mot_HHH_b1_03065_af2_000000286_0001_1_17_H_._HHH_b2_00454_0001_0000100004_0000001_0_af2pred_0001 (protein)
chain: SSSSSDEFFERVYELLRRVAELAEQGNPEEAERLLEEAKELAEEANNPYLKLAIEFVERRNSSSS
B18: il10ra_site1_normal_mot_HHH_b1_03900_000000129_0001_1_16_H_._HHH_b1_08130_0001_0000900038_0000002_0_af2pred_dldesign_0_af2pred (protein)
chain: SSSSDGVARARELYARILEALAAGDPVTAAALLKELADVAAETQDPEAQRLALEAARLLLESSSS

The binders below were run against il10ra, Q13651 (assay: yeast display titration).

Binder | apparent Kd
B1 | inactive: no binding seen
B2 | inactive: no binding seen
B3 | inactive: no binding seen
B4 | inactive: no binding seen
B5 | inactive: no binding seen
B6 | inactive: no binding seen
B7 | inactive: no binding seen
B8 | inactive: no binding seen
B9 | inactive: no binding seen
B10 | inactive: no binding seen
B11 | inactive: no binding seen
B12 | inactive: no binding seen
B13 | inactive: no binding seen
B14 | inactive: no binding seen
B15 | inactive: no binding seen
B16 | inactive: no binding seen
B17 | inactive: no binding seen
B18 | inactive: no binding seen

Part of the list above, with tabs:
Binder	apparent Kd
B6	inactive: no binding seen
B15	inactive: no binding seen
